Read-outs that look alike come from different tables or passages of the source. Results are given in words; binding and its absence hold for the method and conditions named. Binding seen in cells or lysates may run through a third protein. Here binding means that the protein was enriched with, or labelled near, the bait; the list need not be complete. Tags and fused reporters may be left off the sequences shown.

The chains behind the UniProt entries cited, without tags or fusion partners.
UniProt O46036: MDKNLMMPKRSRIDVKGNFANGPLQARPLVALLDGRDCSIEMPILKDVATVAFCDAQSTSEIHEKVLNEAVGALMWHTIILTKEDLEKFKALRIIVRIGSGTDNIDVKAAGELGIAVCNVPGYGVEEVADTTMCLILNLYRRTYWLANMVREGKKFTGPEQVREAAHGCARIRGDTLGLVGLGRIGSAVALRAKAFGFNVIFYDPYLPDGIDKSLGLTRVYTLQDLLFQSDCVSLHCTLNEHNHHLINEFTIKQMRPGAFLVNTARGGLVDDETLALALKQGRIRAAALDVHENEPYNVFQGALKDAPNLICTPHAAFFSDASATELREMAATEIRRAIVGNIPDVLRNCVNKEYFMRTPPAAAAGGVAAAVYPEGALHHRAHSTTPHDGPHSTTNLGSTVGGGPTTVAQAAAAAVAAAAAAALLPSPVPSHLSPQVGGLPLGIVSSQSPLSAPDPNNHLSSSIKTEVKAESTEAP

The target of assay [1] is T1, ecdysone receptor isoform EcR-A fused to TurboID biotin ligase (TurboID-Gly-EcR) (Drosophila melanogaster) (UniProt P34021).
T1 sequence: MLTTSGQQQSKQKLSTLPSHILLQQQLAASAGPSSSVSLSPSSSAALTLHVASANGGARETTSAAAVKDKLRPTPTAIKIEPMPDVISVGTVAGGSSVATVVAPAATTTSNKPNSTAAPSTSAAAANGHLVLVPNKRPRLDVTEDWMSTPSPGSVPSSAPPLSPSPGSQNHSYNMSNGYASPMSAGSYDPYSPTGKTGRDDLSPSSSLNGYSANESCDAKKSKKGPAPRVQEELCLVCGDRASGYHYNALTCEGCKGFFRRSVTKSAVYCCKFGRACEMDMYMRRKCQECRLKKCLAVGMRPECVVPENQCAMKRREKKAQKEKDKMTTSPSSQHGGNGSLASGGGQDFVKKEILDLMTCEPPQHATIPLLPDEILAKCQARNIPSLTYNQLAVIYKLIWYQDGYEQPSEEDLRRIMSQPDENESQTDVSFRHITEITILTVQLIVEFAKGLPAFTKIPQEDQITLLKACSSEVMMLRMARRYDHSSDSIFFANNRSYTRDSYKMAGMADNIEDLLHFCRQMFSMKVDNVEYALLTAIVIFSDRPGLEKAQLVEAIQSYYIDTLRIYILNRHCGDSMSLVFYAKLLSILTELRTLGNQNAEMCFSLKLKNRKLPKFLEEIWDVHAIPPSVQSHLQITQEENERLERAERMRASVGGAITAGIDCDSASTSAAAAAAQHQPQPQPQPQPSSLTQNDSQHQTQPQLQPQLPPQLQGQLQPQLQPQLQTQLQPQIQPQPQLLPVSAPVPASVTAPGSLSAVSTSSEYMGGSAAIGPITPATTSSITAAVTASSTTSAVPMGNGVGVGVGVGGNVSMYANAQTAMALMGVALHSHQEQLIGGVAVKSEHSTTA
Nature of the assay: proximity labelling; TurboID-EcR-A expressed in ovarian somatic cells of transgenic flies (tj-GAL4), biotin-supplemented food for 24 h; ovaries lysed in RIPA buffer; biotinylated proteins enriched on protease-resistant streptavidin (prS), on-bead trypsinolysis, LC-MS/MS; enrichment against the TurboGly (TurboID-Gly) control, two biological replicates.

Assay [2] deals with T1, ecdysone receptor isoform EcR-A fused to TurboID biotin ligase (TurboID-Gly-EcR) (Drosophila melanogaster). The assay is described as above. This is another data set of the same source.

For CtBP (from UniProt O46036 1-476), in assay [1], the binding result is “binds”.

B1: tws, a subunit of the INTAC complex (protein, UniProt P36872 1-499)
chain: MGRWGRQSPVLEPPDPQMQTTPPPPTLPPRTFMRQSSITKIGNMLNTAININGAKKPASNGEASWCFSQIKGALDDDVTDADIISCVEFNHDGELLATGDKGGRVVIFQRDPASKAANPRRGEYNVYSTFQSHEPEFDYLKSLEIEEKINKIRWLQQKNPVHFLLSTNDKTVKLWKVSERDKSFGGYNTKEENGLIRDPQNVTALRVPSVKQIPLLVEASPRRTFANAHTYHINSISVNSDQETFLSADDLRINLWHLEVVNQSYNIVDIKPTNMEELTEVITAAEFHPTECNVFVYSSSKGTIRLCDMRSAALCDRHSKQFEEPENPTNRSFFSEIISSISDVKLSNSGRYMISRDYLSIKVWDLHMETKPIETYPVHEYLRAKLCSLYENDCIFDKFECCWNGKDSSIMTGSYNNFFRVFDRNSKKDVTLEASRDIIKPKTVLKPRKVCTGGKRKKDEISVDCLDFNKKILHTAWHPEENIIAVAATNNLFIFQDKF
modifications: biotinylated by TurboID (sites not determined)
Turning to B1, the binding entry in assay [2] is recorded as “binds”.

B2: Dp (the dimerization partner of E2F1) (protein, UniProt Q24318 1-445)
chain: MAHSTGGTVKTDEVNFFFRNEHGQISKMLKPAQNKSEMEGGKPVAVVYATGSSARNSGSASGIGNVGRMGAFSQMGSQGQFIRLQDNGLSIPKTEAGTTYTTVSAQKTSGAGSGHYDLPLKGDRYVKFTPNPIKMKSKLHAIQSNSLHSMSASSSSVQRKRKPDKAGKGLRHFSMKVCEKVEEKGKTTYNEVADDLVSEEMKNNAYDNNCDQKNIRRRVYDALNVLMAINVISKDKKEIRWIGLPANSTETFLALEEENCQRRERIKQKNEMLREMIMQHVAFKGLVERNKRNESQGVVPSPNASIQLPFIIVNTHKSTKINCSVTNDKSEYIFKFDKTFEMHDDIEVLKRMGFLLGLDKGECTPENIERVKSWVPPNLAKYVEAYGTGKTGENMYESDDEDNEFNGYLESANESQGFAQHSAQHTTDGEFKLEMDDDELDDDID
modifications: biotinylated by TurboID (sites not determined)
As for B2, the binding result in assay [2] was “binds”.

The values are drawn from paper PMC12386920.
